# Reference: patent US11026965B2, “Nitric oxide-releasing cyclodextrins as biodegradable antibacterial scaffolds and methods pertaining thereto” (The University of North Carolina at Chapel Hill, priority 2018, dated 2021)
# Some entries share one result that the patent states for a list of compounds. For at least one compound, name, drawing or mass did not settle the structure.
# Tested on: L929 mouse fibroblasts
# Experiment: In-vitro cytotoxicity, L929 mouse fibroblasts, MTS, 4 h exposure
# Assay type: cell-based
# Settings: FIG. 21e
# Procedure: L929 mouse fibroblasts were cultured in DMEM supplemented with 10% v/v fetal bovine serum (FBS) and 1 wt % penicillin/streptomycin, and incubated in 5% v/v CO2 under humidified conditions at 37° C. After reaching confluency (80%), the cells were trypsinized, seeded onto tissue-culture treated polystyrene 96-well plates at a density of 1×10^4 cells/mL, and incubated at 37° C. for 24 hours. The supernatant was then aspirated and replaced with 100 μL of fresh growth medium containing various concentrations of both unmodified control and NO-releasing CD derivatives to each well. After incubation at 37° C. for 4 hours, the supernatant was aspirated and 100 μL of a mixture of DMEM/MTS/PMS (105/20/1, v/v/v) was added to each well. The absorbance of the resulting colored solutions over 3 hours incubation was quantified by using a ThermoScientific Multiskan EX plate reader (Waltham, Mass.) at 490 nm. […] Cell viability was calculated according to the following formula: […]
# Despite effective bactericidal capability, the applicability of new antibacterial agents is also determined by their toxicity to mammalian cells. […] The cytotoxicity of CD-NONOates was evaluated by exposing mouse fibroblast cells to various concentrations (0˜2000 μg/mL) of both control and NO-releasing CD derivatives over a 4 hour exposure. […]
smiles,measurement,value
NCCNCCNCC1OC2OC3C(CO)OC(OC4C(CO)OC(OC5C(CO)OC(OC6C(CO)OC(OC7C(CO)OC(OC8C(CO)OC(OC1C(O)C2O)C(O)C8O)C(O)C7O)C(O)C6O)C(O)C5O)C(O)C4O)C(O)C3O (stereo not shown) [CD-DETA],concentration up to which non-toxic,≥ 4000 µg/mL
